Reference: paper PMC6940745 (International Journal of Molecular Sciences, 2019)

Experiments:
[1] = general procedure: Fmoc solid-phase peptide synthesis; 2-chlorotrityl; TBTU/DIPEA; TPTU/2,4,6-trimethylpyridine for amine coupling; details: whole synthesis, 2TFA; for isolated yield: scale of the general procedure approximately 2 g 2-chloro-trityl-resin
[2] = general procedure: Fmoc solid-phase peptide synthesis; Rink amide; TBTU/DIPEA; TPTU/2,4,6-trimethylpyridine for amine coupling; details: whole synthesis, 2TFA; for isolated yield: scale of the general procedure approximately 2 g 2-chloro-trityl-resin

Row | Substance | isolated mass [1] | isolated yield [1] | isolated mass [2] | isolated yield [2]
1 | PEPTIDE1{[Bz].G.H.[dF].R.[dW].[NPr2]}$$$$V2.0 | 131 mg | 12% |  | 
2 | PEPTIDE1{[Bz].G.H.[dF].R.[D-2-NaphAla].[am]}$$$$V2.0 |  |  | 351 mg | 32%
3 | PEPTIDE1{[Bz].G.H.[dF].R.[dF].[am]}$$$$V2.0 |  |  | 218 mg | 22%
4 | Bz-Gly-His-D-Phe-Arg-(N-IndEt)Gly-NH2 *2TFA |  |  | 135 mg | 13%
5 | PEPTIDE1{[Bz].G.H.[dF].[Dab].W.[am]}$$$$V2.0 |  |  | 170 mg | 14%
6 | PEPTIDE1{[Bz].G.H.[dF].R.W.[NPr2]}$$$$V2.0 | 196 mg | 36% |  | 
7 | PEPTIDE1{[Bz].G.H.[dF].R.W.[am]}$$$$V2.0 |  |  | 196 mg | 19%
8 | PEPTIDE1{[Bz].G.H.[dF].R.[L-2-NaphAla].[am]}$$$$V2.0 |  |  | 413 mg | 39%

Some peptides are written in HELM: one residue between dots, names in brackets for other building blocks, links after the first $.
